Source: PubChem BioAssay AID1508588 (Peter MacCallum Cancer Centre, 2020)
Here is a random part of about 18,000 reagents. 790 of all reagents (4.4%) were called active. 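Calls rest on a combination of fold-change classes in drug and vehicle arms, not all shown here.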 A reagent listed more than once was tested more than once; the source does not tell the runs apart.

- Aim: 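Knock-downs boosting vemurafenib effects on melanoma cell growth or lactate release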 (primary screen)
- System: human WM266.4 melanoma cells (BRAF V600 mutant)
- Knock-down reagent: siRNA pool against human genes, 40 nM
- Time to read-out: 96 h from transfection to read-out
- Conditions: vemurafenib 300 nM (about IC25), added 48 h after transfection, for 48 h; comparison arm got DMSO vehicle only
- Detection: 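Cell gain (DAPI nuclei at end minus before drug, mean of two replicates) and medium lactate by absorbance per cell, both as ratio to non-targeting siRNA, also grouped into fold-change classes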
- Direction: cell gain with vemurafenib: higher = more cell gain than with non-targeting siRNA; lactate per cell with vemurafenib: higher = more lactate made per cell
- Call rule: 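a knock-down counts as enhancing when its fold-change classes with vehicle and with vemurafenib, taken together, show a stronger drug effect on cell gain or lactate per cell; exact class pairs not stated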
- Calls: active = enhances vemurafenib effect; inactive = no enhancement seen

| target gene | cell gain with vemurafenib | lactate per cell with vemurafenib | activity call |
| --- | --- | --- | --- |
| SPINK7 (serine peptidase inhibitor Kazal type 7) | 0.64 | 1.38 | inactive |
| PFDN2 (prefoldin subunit 2) | 0.78 | 1.05 | inactive |
| CAPNS1 (calpain small subunit 1) | 0.7 | 0.79 | inactive |
| CACNA2D1 | 0.51 | 0.86 | inactive |
| ARL8A (ARF like GTPase 8A) | 0.33 | 0.78 | inactive |
| BNIP3 (BCL2 interacting protein 3) | 0.42 | 1.64 | inactive |
| SUN2 (Sad1 and UNC84 domain containing 2) | 0.76 | 0.66 | inactive |
| AADAT (aminoadipate aminotransferase) | 1 | 0.84 | inactive |
| PCOLCE (procollagen C-endopeptidase enhancer) | 1 | 0.8 | inactive |
| KCNG2 | 0.61 | 0.76 | inactive |
| KCNG2 | 0.43 | 0.95 | inactive |
| RNF6 (ring finger protein 6) | 1.06 | 0.87 | inactive |
| TTC27 (tetratricopeptide repeat domain 27) | 0.6 | 0.55 | inactive |
| AGL (amylo-alpha-1,6-glucosidase and 4-alpha-glucanotransferase) | 0.36 | 1.4 | inactive |
| RUSF1 (RUS family member 1) | 0.82 | 1.03 | inactive |
| CEP164 (centrosomal protein 164) | 0.48 | 0.67 | inactive |
| FAT4 (FAT atypical cadherin 4) | 0.57 | 0.88 | inactive |
| TLE1 (TLE family member 1, transcriptional corepressor) | 0.89 | 1.25 | inactive |
| NRP1 (neuropilin 1) | 0.76 | 0.42 | active |
| RAB5A (RAB5A, member RAS oncogene family) | 0.76 | 0.49 | inactive |
| HTRA1 (HtrA serine peptidase 1) | 0.07 | 4.22 | inactive |
| GORAB (golgin, RAB6 interacting) | 0.51 | 0.57 | inactive |
| LIPM (lipase family member M) | 0.93 | 0.51 | inactive |
| NF1 (neurofibromin 1) | 1 | 0.76 | inactive |
| SDCBP2 (syndecan binding protein 2) | 0.85 | 0.8 | inactive |
| HLA-E (major histocompatibility complex, class I, E) | 0.93 | 0.76 | inactive |
| P2RX7 (purinergic receptor P2X 7) | 0.32 | 2.03 | inactive |
| FANCL (FA complementation group L) | 0.9 | 1.27 | inactive |
| C8orf82 (chromosome 8 open reading frame 82) | 0.84 | 0.86 | inactive |
| DNAJC6 (DnaJ heat shock protein family (Hsp40) member C6) | 0.23 | 1.57 | inactive |
| NDOR1 (NADPH dependent diflavin oxidoreductase 1) | 0.86 | 0.68 | inactive |
| SLC1A5 | 0.3 | 1.31 | inactive |
| SPACA9 (sperm acrosome associated 9) | 0.8 | 1.15 | inactive |
| ANKRD13C-DT (ANKRD13C divergent transcript) | 0.08 | 2.97 | inactive |
| CMTR1 (cap methyltransferase 1) | 0.59 | 0.39 | inactive |
| KITLG (KIT ligand) | 0.89 | 0.55 | inactive |
| CCDC81 (coiled-coil domain containing 81) | 0.67 | 0.64 | inactive |
| VBP1 (VHL binding protein 1) | 0.99 | 0.53 | inactive |
| DMC1 (DNA meiotic recombinase 1) | 0.51 | 0.9 | inactive |
| NAA50 (N-alpha-acetyltransferase 50, NatE catalytic subunit) | 0.43 | 0.85 | inactive |
| RPL17 (ribosomal protein L17) | 0.03 | 1.08 | inactive |
| GTPBP10 (GTP binding protein 10) | 0.71 | 0.7 | inactive |
| SNCAIP (synuclein alpha interacting protein) | 0.54 | 0.24 | inactive |
| ELF1 (E74 like ETS transcription factor 1) | 0.39 | 1.4 | inactive |
| FAM167A (family with sequence similarity 167 member A) | 0.6 | 1.37 | inactive |
| PEF1 (penta-EF-hand domain containing 1) | 0.6 | 1.06 | inactive |
| PRIMA1 (proline rich membrane anchor 1) | 0.75 | 0.88 | inactive |
| SPANXN3 (SPANX family member N3) | 0.55 | 0.56 | inactive |
| ZNHIT1 (zinc finger HIT-type containing 1) | 0.35 | 1.25 | inactive |
| RAB11A (RAB11A, member RAS oncogene family) | 0.8 | 0.85 | inactive |
| ROBO4 (roundabout guidance receptor 4) | 0.43 | 1.37 | inactive |
| GPALPP1 (GPALPP motifs containing 1) | 0.55 | 0.72 | inactive |
| UBE2QL1 (ubiquitin conjugating enzyme E2 QL1) | 0.07 | 1.43 | inactive |
| RNF125 (ring finger protein 125) | 0.99 | 0.74 | inactive |
| GNGT2 (G protein subunit gamma transducin 2) | 0.28 | 0.2 | inactive |
| DGKB (diacylglycerol kinase beta) | 0.5 | 0.9 | inactive |
| TRA2A (transformer 2 alpha homolog) | 0.37 | 1.52 | inactive |
| KIT (KIT proto-oncogene, receptor tyrosine kinase) | 0.55 | 0.88 | inactive |
| FAM219A (family with sequence similarity 219 member A) | 0.91 | 1.05 | inactive |
| CAP2 (cyclase associated actin cytoskeleton regulatory protein 2) | 0.61 | 1.11 | inactive |
| ATP8B4 (ATPase phospholipid transporting 8B4 (putative)) | 0.74 | 0.75 | inactive |
| TSPAN2 (tetraspanin 2) | 0.42 | 1.98 | inactive |
| CACNA2D4 | 0.03 | 1.45 | inactive |
| DMXL1 (Dmx like 1) | 1 | 1.09 | inactive |
| SEC14L1 (SEC14 like lipid binding 1) | 0.25 | 3.93 | inactive |
| KIAA1143 | 0.74 | 1.37 | inactive |
| RNF8 (ring finger protein 8) | 1.03 | 0.89 | inactive |
| FNDC7 (fibronectin type III domain containing 7) | 1.08 | 0.62 | inactive |
| BAK1 (BCL2 antagonist/killer 1) | 0.57 | 0.54 | inactive |
| CSRP1 (cysteine and glycine rich protein 1) | 1.02 | 1.03 | inactive |
| ARL5B (ARF like GTPase 5B) | 0.51 | 0.91 | inactive |
| ELAC1 (elaC ribonuclease Z 1) | 0.63 | 0.99 | inactive |
| FTHL17 (ferritin heavy chain like 17) | 0 | 0.67 | inactive |
| IL10RB (interleukin 10 receptor subunit beta) | 0.87 | 0.76 | inactive |
| CERT1 (ceramide transporter 1) | 0.78 | 0.58 | inactive |
| PDE8B (phosphodiesterase 8B) | 0.57 | 1.79 | inactive |
| TUBG2 (tubulin gamma 2) | 0.48 | 0.84 | inactive |
| TMEM38B (transmembrane protein 38B) | 0.51 | 0.76 | inactive |
| PPP1R12A (protein phosphatase 1 regulatory subunit 12A) | 0.29 | 0.38 | inactive |
| ACHE (acetylcholinesterase (Yt blood group)) | 0.67 | 0.79 | inactive |
| EFHD1 (EF-hand domain family member D1) | 0.76 | 1.09 | inactive |
| SLC26A9 | 0.29 | 2.16 | inactive |
| SSX2IP (SSX family member 2 interacting protein) | 0.63 | 1.03 | inactive |
| KLHDC4 (kelch domain containing 4) | 1.26 | 0.61 | inactive |
| TMEM39A (transmembrane protein 39A) | 0.49 | 0.73 | inactive |
| PPL (periplakin) | 1 | 0.44 | inactive |
| CCNDBP1 (cyclin D1 binding protein 1) | 0.3 | 1.06 | inactive |
| ADAT3 (adenosine deaminase tRNA specific 3) | 0.28 | 1.62 | inactive |
| EXT1 (exostosin glycosyltransferase 1) | 0.71 | 1.04 | inactive |
| PVRIG (PVR related immunoglobulin domain containing) | 0.66 | 1.17 | inactive |
| TMEM126A (transmembrane protein 126A) | 0.73 | 0.76 | inactive |
| TSHZ3 (teashirt zinc finger homeobox 3) | 0.96 | 0.9 | inactive |
| MTFR1L (mitochondrial fission regulator 1 like) | 0.33 | 1.25 | inactive |
| TRMT1 (tRNA methyltransferase 1) | 0.59 | 1.01 | inactive |
| SPC24 (SPC24 component of NDC80 kinetochore complex) | 0.81 | 0.82 | inactive |
| MTFR2 (mitochondrial fission regulator 2) | -0.17 | 1.48 | inactive |
| SPAG7 (sperm associated antigen 7) | 0.7 | 0.55 | inactive |
| QARS1 (glutaminyl-tRNA synthetase 1) | 1.34 | 0.12 | inactive |
| PCDH12 (protocadherin 12) | 0.38 | 0.48 | active |
| CYP2C9 (cytochrome P450 family 2 subfamily C member 9) | 1.13 | 0.68 | inactive |
| CIMIP1 (ciliary microtubule inner protein 1) | 0.62 | 0.62 | inactive |
| PCNP (PEST proteolytic signal containing nuclear protein) | 0.65 | 0.4 | active |
| TMEM268 (transmembrane protein 268) | 0.26 | 2.04 | inactive |
| CDR1 (cerebellar degeneration related 1) | 0.73 | 0.88 | inactive |
| MEIS2 (Meis homeobox 2) | 0.92 | 0.84 | inactive |
| CXCR2 (C-X-C motif chemokine receptor 2) | 0.58 | 1.96 | inactive |
| USP44 (ubiquitin specific peptidase 44) | 0.54 | 1 | inactive |

Laid out differently: results already given.
target gene | cell gain with vemurafenib | lactate per cell with vemurafenib | activity call
RNF125 (ring finger protein 125) | 0.99 | 0.74 | inactive
GNGT2 (G protein subunit gamma transducin 2) | 0.28 | 0.2 | inactive
DGKB (diacylglycerol kinase beta) | 0.5 | 0.9 | inactive
TRA2A (transformer 2 alpha homolog) | 0.37 | 1.52 | inactive
KIT (KIT proto-oncogene, receptor tyrosine kinase) | 0.55 | 0.88 | inactive
FAM219A (family with sequence similarity 219 member A) | 0.91 | 1.05 | inactive
CAP2 (cyclase associated actin cytoskeleton regulatory protein 2) | 0.61 | 1.11 | inactive
ATP8B4 (ATPase phospholipid transporting 8B4 (putative)) | 0.74 | 0.75 | inactive
TSPAN2 (tetraspanin 2) | 0.42 | 1.98 | inactive
CACNA2D4 | 0.03 | 1.45 | inactive
DMXL1 (Dmx like 1) | 1 | 1.09 | inactive
SEC14L1 (SEC14 like lipid binding 1) | 0.25 | 3.93 | inactive
KIAA1143 | 0.74 | 1.37 | inactive
